Laboratory results as given in the supplement of paper PMC11732987, “Enantioselective OTUD7B fragment discovery through chemoproteomics screening and high-throughput optimisation” (Communications Chemistry, 2025).
Some of the results follow. The data scatter; read single values as rough.

The chains behind the UniProt entries cited, without tags or fusion partners. Where a name states a change or a piece, a line headed by the entry shows the natural chain unless it says otherwise. Residues count along the entry.
UniProt Q12769: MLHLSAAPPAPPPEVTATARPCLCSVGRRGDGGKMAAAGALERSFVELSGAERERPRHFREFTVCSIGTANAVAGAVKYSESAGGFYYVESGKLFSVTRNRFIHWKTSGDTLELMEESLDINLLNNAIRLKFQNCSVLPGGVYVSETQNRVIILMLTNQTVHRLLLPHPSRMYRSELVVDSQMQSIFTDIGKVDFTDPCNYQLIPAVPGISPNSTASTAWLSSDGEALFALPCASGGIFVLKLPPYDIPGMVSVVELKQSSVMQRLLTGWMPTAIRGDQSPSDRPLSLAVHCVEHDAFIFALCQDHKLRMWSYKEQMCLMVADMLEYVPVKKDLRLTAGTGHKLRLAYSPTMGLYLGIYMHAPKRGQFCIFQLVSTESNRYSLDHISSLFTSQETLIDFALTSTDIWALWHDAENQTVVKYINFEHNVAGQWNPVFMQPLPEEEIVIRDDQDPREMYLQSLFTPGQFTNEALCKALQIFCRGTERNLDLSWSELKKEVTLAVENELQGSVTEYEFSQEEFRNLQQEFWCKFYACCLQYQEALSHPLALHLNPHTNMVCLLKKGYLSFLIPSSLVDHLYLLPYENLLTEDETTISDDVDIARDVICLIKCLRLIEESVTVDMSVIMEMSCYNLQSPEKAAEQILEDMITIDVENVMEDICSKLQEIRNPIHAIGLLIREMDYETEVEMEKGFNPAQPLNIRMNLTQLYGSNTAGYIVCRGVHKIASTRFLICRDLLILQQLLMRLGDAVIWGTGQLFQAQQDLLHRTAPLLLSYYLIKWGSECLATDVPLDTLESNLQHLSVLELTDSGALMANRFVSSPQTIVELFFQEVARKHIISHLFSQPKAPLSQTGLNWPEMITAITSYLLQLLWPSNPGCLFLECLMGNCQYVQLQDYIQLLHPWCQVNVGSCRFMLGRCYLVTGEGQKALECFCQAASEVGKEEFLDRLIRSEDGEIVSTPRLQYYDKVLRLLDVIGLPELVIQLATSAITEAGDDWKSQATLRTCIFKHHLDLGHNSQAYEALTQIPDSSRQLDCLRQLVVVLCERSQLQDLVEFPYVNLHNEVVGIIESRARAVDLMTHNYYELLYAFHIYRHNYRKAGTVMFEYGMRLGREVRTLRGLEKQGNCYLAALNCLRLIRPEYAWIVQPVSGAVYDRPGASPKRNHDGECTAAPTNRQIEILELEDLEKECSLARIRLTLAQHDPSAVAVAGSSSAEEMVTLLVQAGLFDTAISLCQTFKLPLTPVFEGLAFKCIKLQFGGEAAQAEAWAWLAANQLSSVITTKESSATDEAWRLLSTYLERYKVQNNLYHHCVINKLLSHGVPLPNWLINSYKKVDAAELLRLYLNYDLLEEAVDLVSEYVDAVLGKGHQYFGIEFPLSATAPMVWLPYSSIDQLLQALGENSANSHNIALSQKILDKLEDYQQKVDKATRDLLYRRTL
UniProt Q9BXW6, whole entry, looked up: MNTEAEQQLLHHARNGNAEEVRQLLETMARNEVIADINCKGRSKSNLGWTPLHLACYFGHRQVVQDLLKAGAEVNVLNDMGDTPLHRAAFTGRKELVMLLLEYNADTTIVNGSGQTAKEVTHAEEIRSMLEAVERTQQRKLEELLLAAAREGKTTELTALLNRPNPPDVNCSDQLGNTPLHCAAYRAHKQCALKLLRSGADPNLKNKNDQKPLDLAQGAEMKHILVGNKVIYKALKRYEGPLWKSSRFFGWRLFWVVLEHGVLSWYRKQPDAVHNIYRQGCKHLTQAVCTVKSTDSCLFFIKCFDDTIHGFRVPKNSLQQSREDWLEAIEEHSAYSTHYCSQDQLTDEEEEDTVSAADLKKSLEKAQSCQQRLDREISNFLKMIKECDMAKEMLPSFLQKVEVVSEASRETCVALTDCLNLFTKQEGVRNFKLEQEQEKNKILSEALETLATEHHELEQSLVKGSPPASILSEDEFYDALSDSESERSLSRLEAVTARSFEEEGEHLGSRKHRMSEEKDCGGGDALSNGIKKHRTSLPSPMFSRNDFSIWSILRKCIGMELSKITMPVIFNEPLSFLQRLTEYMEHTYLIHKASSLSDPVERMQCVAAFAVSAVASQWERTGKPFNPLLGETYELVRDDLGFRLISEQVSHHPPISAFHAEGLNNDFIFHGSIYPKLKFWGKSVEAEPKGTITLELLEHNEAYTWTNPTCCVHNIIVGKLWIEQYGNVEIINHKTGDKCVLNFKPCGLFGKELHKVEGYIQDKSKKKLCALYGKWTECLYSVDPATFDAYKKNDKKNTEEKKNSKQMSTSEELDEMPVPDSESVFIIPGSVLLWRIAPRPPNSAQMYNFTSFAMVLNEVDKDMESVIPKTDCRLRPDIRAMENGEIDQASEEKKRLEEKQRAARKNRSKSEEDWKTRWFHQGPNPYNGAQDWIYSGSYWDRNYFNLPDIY
UniProt P49790, 556-586: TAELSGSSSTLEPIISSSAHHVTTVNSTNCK
UniProt Q9Y530: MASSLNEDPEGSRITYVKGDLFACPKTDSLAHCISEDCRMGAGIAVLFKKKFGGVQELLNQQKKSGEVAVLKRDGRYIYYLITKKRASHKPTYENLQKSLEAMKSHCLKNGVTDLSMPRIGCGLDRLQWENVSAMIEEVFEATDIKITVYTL
UniProt Q8N1F7, 505-524: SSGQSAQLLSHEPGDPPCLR
UniProt Q08J23, 738-767: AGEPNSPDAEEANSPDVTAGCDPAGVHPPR
UniProt P37198, 453-476: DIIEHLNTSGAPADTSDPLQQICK
UniProt P52948: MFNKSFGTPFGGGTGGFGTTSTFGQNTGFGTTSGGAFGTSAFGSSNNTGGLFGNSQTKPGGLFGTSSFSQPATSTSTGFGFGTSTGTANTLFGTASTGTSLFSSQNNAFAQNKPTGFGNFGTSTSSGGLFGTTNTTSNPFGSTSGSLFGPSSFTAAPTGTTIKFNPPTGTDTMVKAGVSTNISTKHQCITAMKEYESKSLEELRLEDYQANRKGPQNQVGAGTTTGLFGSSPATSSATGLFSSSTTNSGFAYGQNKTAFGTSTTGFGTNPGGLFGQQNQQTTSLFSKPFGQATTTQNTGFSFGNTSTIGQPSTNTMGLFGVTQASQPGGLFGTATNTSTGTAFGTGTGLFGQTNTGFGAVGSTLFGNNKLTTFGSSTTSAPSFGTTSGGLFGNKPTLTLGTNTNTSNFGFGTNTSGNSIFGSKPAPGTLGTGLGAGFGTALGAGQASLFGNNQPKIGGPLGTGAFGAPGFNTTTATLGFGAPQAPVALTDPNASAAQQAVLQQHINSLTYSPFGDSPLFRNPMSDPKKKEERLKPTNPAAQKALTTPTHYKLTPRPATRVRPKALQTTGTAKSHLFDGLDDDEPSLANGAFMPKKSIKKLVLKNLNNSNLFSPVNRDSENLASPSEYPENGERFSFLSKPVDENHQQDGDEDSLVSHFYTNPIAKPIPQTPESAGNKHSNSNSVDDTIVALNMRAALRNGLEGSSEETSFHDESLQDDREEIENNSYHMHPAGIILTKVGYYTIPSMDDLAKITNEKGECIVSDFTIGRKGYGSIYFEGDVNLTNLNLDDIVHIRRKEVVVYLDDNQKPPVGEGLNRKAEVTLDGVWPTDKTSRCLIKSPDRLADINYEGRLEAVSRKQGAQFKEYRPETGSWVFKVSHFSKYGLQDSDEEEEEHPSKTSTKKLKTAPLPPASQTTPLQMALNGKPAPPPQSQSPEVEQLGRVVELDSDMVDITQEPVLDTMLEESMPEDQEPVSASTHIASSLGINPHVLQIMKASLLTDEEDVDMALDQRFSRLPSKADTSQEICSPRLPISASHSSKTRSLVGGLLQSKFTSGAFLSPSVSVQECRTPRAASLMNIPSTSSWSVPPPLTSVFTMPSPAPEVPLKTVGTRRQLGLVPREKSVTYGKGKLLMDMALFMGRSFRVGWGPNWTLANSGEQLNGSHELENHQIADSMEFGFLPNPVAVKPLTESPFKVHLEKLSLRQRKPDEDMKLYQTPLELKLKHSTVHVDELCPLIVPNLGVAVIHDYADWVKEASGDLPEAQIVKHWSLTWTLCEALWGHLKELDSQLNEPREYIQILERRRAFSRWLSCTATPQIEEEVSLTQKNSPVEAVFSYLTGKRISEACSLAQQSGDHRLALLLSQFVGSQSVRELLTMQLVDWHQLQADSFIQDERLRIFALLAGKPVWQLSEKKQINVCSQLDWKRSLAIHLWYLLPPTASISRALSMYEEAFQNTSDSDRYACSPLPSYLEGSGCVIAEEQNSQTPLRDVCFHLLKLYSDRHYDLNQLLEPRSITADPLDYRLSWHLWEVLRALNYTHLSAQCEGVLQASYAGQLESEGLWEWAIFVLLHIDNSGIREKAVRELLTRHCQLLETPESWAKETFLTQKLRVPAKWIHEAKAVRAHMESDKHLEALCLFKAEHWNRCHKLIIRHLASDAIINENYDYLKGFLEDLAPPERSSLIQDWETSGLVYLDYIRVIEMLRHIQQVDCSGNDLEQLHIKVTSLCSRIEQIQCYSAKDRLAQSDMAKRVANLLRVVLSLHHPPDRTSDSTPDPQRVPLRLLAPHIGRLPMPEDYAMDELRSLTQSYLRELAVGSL
UniProt P04150: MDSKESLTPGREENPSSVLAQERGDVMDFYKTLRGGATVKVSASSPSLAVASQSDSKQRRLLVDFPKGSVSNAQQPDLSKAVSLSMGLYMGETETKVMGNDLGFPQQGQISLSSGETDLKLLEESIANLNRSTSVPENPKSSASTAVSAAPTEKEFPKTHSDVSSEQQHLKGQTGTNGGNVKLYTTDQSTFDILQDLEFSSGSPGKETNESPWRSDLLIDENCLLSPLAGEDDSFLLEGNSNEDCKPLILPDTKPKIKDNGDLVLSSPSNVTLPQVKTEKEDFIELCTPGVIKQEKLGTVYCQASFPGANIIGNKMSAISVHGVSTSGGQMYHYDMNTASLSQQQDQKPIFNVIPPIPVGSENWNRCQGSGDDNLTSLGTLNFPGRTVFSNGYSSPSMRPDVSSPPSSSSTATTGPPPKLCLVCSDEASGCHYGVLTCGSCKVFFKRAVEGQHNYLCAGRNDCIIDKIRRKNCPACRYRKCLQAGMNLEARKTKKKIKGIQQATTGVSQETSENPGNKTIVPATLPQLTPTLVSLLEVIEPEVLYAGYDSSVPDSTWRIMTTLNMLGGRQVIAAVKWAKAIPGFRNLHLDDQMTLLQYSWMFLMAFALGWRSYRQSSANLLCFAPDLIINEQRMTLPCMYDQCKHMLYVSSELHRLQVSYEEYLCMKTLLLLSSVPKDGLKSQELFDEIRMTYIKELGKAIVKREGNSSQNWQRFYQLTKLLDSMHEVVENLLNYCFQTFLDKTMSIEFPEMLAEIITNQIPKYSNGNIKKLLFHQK
UniProt Q5SRE5, 1251-1272: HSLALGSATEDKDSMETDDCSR
UniProt Q86UY8: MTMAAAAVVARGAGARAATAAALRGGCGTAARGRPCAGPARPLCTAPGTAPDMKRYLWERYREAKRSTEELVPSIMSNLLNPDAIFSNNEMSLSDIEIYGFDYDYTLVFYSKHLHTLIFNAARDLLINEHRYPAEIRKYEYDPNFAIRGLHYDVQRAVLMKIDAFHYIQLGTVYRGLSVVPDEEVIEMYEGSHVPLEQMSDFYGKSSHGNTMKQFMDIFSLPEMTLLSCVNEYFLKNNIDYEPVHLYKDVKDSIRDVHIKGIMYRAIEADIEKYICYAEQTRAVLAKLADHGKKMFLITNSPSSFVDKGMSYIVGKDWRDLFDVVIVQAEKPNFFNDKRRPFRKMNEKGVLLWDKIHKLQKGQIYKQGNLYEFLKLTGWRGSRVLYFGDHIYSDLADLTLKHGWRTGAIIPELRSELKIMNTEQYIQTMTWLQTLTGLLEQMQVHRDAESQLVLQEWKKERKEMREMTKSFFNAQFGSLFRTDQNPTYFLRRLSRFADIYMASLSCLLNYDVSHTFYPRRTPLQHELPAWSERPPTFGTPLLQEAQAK
UniProt Q96E22: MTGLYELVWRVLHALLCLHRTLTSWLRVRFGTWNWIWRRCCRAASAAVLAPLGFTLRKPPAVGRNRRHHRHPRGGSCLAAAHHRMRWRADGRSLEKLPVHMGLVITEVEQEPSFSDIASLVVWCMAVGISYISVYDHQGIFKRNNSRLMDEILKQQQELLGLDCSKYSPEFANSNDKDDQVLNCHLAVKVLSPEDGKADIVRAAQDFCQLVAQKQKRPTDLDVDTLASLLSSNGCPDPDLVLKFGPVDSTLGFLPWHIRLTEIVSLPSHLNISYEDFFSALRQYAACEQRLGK
UniProt P04181: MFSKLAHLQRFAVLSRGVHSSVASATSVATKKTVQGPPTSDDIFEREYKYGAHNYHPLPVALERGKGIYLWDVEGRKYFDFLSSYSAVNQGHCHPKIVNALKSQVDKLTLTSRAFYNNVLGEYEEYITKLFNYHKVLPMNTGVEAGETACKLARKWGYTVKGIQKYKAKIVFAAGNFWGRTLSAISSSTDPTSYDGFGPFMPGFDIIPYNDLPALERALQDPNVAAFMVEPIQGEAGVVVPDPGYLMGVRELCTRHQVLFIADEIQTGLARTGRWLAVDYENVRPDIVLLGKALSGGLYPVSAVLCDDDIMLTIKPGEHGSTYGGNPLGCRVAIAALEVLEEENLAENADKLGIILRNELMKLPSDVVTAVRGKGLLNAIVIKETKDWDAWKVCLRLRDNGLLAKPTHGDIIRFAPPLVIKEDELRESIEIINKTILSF

Columns and labels:
[1] = compound: ClCC(=O)N[C@@H]1CCCc2ccccc12; test: log2 mean competition ratio of IA-DTB cysteine labelling (DMSO/compound) (log2 ratio); higher = stronger cysteine engagement by compound; conditions: treatment time: 4 h, cell line lysate: HEK293T
Experimental: (§1)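 IA-DTB competitive cysteine chemoproteomics in HEK293T RIPA lysate. Lysates were treated with compound 29 or 30 at 50 or 200 µM for 4 h, then IA-DTB (500 µM, 1 h), trypsin-digested, NeutrAvidin-enriched and analysed by diaPASEF. Competition ratio = intensity DMSO / intensity compound (n=4 treated, n=64 DMSO); binding: mean log2 CR ≥ 1 and p ≤ 0.05 plus QC filters. Target is the cysteine site.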

[2] = compound: ClCC(=O)N[C@H]1CCCc2ccccc12; test: as above; conditions: treatment time: 4 h, cell line lysate: HEK293T
Experimental: as §1

Row | Target | log2 mean competition ratio ([1]; 50 µM) | log2 mean competition ratio ([1]; 200 µM) | log2 mean competition ratio ([2]; 50 µM) | log2 mean competition ratio ([2]; 200 µM)
1 | NUP160 C480 (UniProt Q12769) | 0.381 | 0.281 | 0.348 | 0.315
2 | OTUB1 C91 (UniProt Q96FW1) | 0.0757 | 0.109 | 0.268 | 0.0588
3 | OSBPL1A C297 (UniProt Q9BXW6) | 0.0954 | -0.273 | -0.366 | 0.248
4 | NUP153 C585 (UniProt P49790) | -0.0235 | -0.0329 | 0.894 | -0.212
5 | NSUN3 C214 (UniProt Q9H649) | -0.238 | 0.0388 | 0.129 | 0.0701
6 | NVL C192 (UniProt O15381) | -0.106 | 0.0912 | 0.0327 | 0.281
7 | NUP37 C149 (UniProt Q8NFH4) | -0.252 | 0.0824 | -0.274 | -0.056
8 | NSF C264 (UniProt P46459) | 0.555 | 0.152 | 0.382 | 0.155
9 | NVL C431 (UniProt O15381) | 0.0325 | 0.104 | 0.26 | 0.275
10 | NSD2 C1315 (UniProt O96028) | 0.19 | 0.254 | -0.0847 | 0.161
11 | NR2F2 C343 (UniProt P24468) | 0.255 | 0.637 | 0.00658 | 0.766
12 | OARD1 C24 (UniProt Q9Y530) | -0.00298 | -0.157 | 0.452 | -0.0851
13 | NUMBL C161 (UniProt Q9Y6R0) | 0.554 | 0.402 | 0.818 | 0.469
14 | NSD1 C342 (UniProt Q96L73) | 0.332 | 0.381 | 0.187 | 0.383
15 | NUFIP1 C317 (UniProt Q9UHK0) | -0.0277 | -0.0847 | 0.181 | -0.0161
16 | NUP93 C328 (UniProt Q8N1F7) | 0.0132 | -0.148 | -0.209 | -0.192
17 | NSMCE2 C140 (UniProt Q96MF7) | 0.0892 | 0.0386 | 0.169 | 0.172
18 | NUP85 C603 (UniProt Q9BW27) | -0.101 | 0.113 | -0.362 | 0.0468
19 | OIP5 C21 (UniProt O43482) | -0.192 | 0.00643 | -0.211 | 0.197
20 | NUDT9 C207 (UniProt Q9BW91) | -0.188 | -0.131 | 0.445 | 0.0503
21 | ODR4 C275 (UniProt Q5SWX8) | -0.0951 | -0.232 | 0.0976 | -0.441
22 | ORC4 C16 (UniProt O43929) |  |  | -0.00315 | 0.0977
23 | NSMCE1 C40 (UniProt Q8WV22) |  |  | 0.396 | -0.289
24 | NSUN2 C758 (UniProt Q08J23) |  |  | -0.549 | -0.139
25 | NUP93 C522 (UniProt Q8N1F7) |  |  | -0.283 | 0.21
26 | NUBP2 C54 (UniProt Q9Y5Y2) |  |  | -0.416 | 0.321

Row | Target | log2 mean competition ratio ([1]; 50 µM) | log2 mean competition ratio ([1]; 200 µM) | log2 mean competition ratio ([2]; 50 µM) | log2 mean competition ratio ([2]; 200 µM)
27 | NR2F2 C121 (UniProt P24468) | 0.305 | -0.249 | 0.374 | -0.299
28 | OARD1 C122 (UniProt Q9Y530) |  |  | -0.269 | 0.166
29 | OBI1 C458 (UniProt Q5W0B1) |  |  | 0.0202 | 0.17
30 | NUP35 C243 (UniProt Q8NFH5) | 0.533 | 0.607 | 0.291 | 0.213
31 | ODAD2 C553 |  |  | -0.563 | 0.114
32 | NPM3 C79 (UniProt O75607) | -0.0447 | -0.157 | -0.54 | -0.064
33 | NPAT C1172 (UniProt Q14207) | -0.125 | -0.0108 | -0.296 | -0.0373
34 | OBSL1 C412 (UniProt O75147) | -0.219 | 0.201 | -0.502 | 0.101
35 | NSD2 C406 (UniProt O96028) | 0.0522 | 0.155 | -0.369 | 0.0534
36 | OSBPL6 C301 (UniProt Q9BZF3) | -0.442 |  | -0.321 | 0.144
37 | NSA2 C253 (UniProt O95478) | 0.0153 | -0.28 | 0.26 | -0.0621
38 | NUP88 C391 (UniProt Q99567) | -0.024 | -0.509 | 0.498 | -0.45
39 | OSGEPL1 C216 (UniProt Q9H4B0) |  |  | -0.0419 | 0.328
40 | NOTCH3 C1222 (UniProt Q9UM47) |  |  | -0.152 | 0.295
41 | NUP62 C475 (UniProt P37198) | 0.0914 | -0.0575 | 0.997 | -0.403
42 | ODAD2 C125 |  |  | -0.302 | -0.232
43 | ORC3 C639 (UniProt Q9UBD5) |  |  | 0.217 | -0.167
44 | NUP98 C1027 (UniProt P52948) |  |  | -0.209 | 0.153
45 | NRDE2 C608 (UniProt Q9H7Z3) |  |  | -0.172 | -0.135
46 | OSBPL1A C303 (UniProt Q9BXW6) |  | -0.139 | -0.473 | 0.107
47 | NRDC C1027 (UniProt O43847) |  |  | -0.471 | -0.437
48 | NUP93 C422 (UniProt Q8N1F7) |  |  | 0.535 | 0.00122
49 | NUP98 C1735 (UniProt P52948) |  |  | -0.0375 | -0.0437
50 | NUMBL C147 (UniProt Q9Y6R0) | -0.0836 | 0.119 | 0.00433 | 0.0629
51 | ODF2L C16 (UniProt Q9ULJ1) |  |  | -0.664 | 0.124
52 | NUP160 C65 (UniProt Q12769) | -0.011 | -0.47 | 0.0493 | -0.456

Individual results from above.
Under log2 mean competition ratio ([2]; 200 µM), NUP98 C1735 (UniProt P52948) shows -0.0437
Under log2 mean competition ratio ([2]; 200 µM), NUP93 C422 (UniProt Q8N1F7) shows 0.00122
Under log2 mean competition ratio ([2]; 50 µM), OSBPL1A C303 (UniProt Q9BXW6) shows -0.473
Under log2 mean competition ratio ([2]; 200 µM), NRDC C1027 (UniProt O43847) shows -0.437

Later entries

Row | Target | log2 mean competition ratio ([1]; 50 µM) | log2 mean competition ratio ([1]; 200 µM) | log2 mean competition ratio ([2]; 50 µM) | log2 mean competition ratio ([2]; 200 µM)
53 | NR3C1 C481 (UniProt P04150) |  | 0.413 | 0.037 | 0.257
54 | NUP188 C1270 (UniProt Q5SRE5) |  |  | 0.0536 | -0.113
55 | NUDCD1 C376 (UniProt Q96RS6) |  |  | -0.138 | -0.0281
56 | NPAT C1002 (UniProt Q14207) |  |  | 0.192 | 0.169
57 | NRBF2 C155 (UniProt Q96F24) | -0.0576 | -0.19 | 0.279 | -0.049
58 | OBI1 C432 (UniProt Q5W0B1) |  |  | 0.178 | -0.0501
59 | NUP205 C1028 (UniProt Q92621) |  |  | -0.114 | 0.151
60 | NUDT9 C347 (UniProt Q9BW91) |  |  | -0.342 | 0.142
61 | OCRL C611 (UniProt Q01968) |  |  | -0.166 | 0.218
62 | NT5DC3 C276 (UniProt Q86UY8) |  |  | -0.495 | -0.29
63 | NUS1 C164 (UniProt Q96E22) |  |  | -0.213 | 0.197
64 | OAT C150 (UniProt P04181) |  |  | 0.219 | 0.0849
65 | NUP160 C529 (UniProt Q12769) |  |  | -0.0327 | -0.251
66 | ORC5 C409 (UniProt O43913) |  |  | -0.194 | 0.191
67 | NUDT6 C44 (UniProt P53370) |  |  | -0.171 | 0.157
68 | NUP93 C392 (UniProt Q8N1F7) |  |  | 0.209 | -0.0834
69 | NSUN2 C502 (UniProt Q08J23) |  |  | -0.22 | 0.215
70 | NSD3 C495 (UniProt Q9BZ95) |  |  | 0.3 | -0.292
71 | NOVA2 C21 |  |  | -0.281 | -0.00413
72 | OSBPL2 C122 (UniProt Q9H1P3) |  |  | 0.0721 | 0.281
73 | OGA C596 (UniProt O60502) |  |  | 0.0951 | 0.0326
74 | NUS1 C287 (UniProt Q96E22) |  |  | -0.00664 | -0.0408
75 | NUP85 C230 (UniProt Q9BW27) |  |  | 0.0396 | 0.352
76 | NR3C2 C308 |  |  | -0.0869 | -0.028
